Laboratory results: publication PMC7385491

Amino acid sequences for entries named in this document (tags omitted).
UniProt P52926: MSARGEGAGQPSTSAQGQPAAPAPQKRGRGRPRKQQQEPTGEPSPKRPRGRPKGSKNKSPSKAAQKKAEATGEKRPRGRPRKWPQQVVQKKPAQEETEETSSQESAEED
UniProt P40763: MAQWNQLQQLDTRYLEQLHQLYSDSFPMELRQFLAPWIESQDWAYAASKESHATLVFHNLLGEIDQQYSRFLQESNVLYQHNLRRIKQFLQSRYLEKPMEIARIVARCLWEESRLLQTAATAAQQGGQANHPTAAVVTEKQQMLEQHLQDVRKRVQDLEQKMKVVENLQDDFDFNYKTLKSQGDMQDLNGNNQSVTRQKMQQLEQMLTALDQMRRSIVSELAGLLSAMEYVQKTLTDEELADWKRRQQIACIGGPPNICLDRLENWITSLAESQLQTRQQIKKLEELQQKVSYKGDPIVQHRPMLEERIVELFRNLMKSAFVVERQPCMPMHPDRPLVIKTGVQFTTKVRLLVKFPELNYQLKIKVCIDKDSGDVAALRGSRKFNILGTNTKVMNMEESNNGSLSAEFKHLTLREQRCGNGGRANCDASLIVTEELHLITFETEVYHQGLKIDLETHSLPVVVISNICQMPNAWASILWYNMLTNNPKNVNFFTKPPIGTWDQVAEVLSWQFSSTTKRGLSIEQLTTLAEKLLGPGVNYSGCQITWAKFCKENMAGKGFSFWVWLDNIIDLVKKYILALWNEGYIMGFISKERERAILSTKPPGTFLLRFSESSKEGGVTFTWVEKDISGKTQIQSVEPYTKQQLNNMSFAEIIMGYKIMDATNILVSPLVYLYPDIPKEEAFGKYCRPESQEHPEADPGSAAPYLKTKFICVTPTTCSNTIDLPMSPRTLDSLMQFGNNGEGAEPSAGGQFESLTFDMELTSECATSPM
UniProt Q15672: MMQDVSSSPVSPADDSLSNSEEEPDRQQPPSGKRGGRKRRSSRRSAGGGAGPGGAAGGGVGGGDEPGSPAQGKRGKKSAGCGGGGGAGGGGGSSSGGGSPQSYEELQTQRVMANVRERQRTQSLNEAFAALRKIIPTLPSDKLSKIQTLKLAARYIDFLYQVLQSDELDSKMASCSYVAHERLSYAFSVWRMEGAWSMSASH

Biological target: high-mobility group AT-hook 2 (HMGA2) (human (endogenous in A549)) (UniProt P52926)
Experiment: affinity purification with mass spectrometry; co-IP in A549 cells using anti-HMGA2 antibody, followed by mass spectrometry

binding | Substance
binds | STAT3 (from UniProt P40763 1-770)
binds | Twist1 (from UniProt Q15672 1-202)

No constants are given. Whether binding was seen depends on the method and setting. Binding seen in cells or lysates may run through a third protein. Here binding means that the protein was enriched with, or labelled near, the bait; the list need not be complete.
